Measurements reported in publication PMC5382322.

Target: GST-dMi-2 ATPase domain (Drosophila)
Test: pull-down; 2 ug GST fusion protein on glutathione beads; 35S-labelled in vitro translated protein in GST pulldown buffer (25 mM Hepes pH 7.6, 150 mM NaCl, 12.5 mM MgCl2, 0.1% NP-40, 0.1 mM DTT), 2 h at 4 °C; autoradiography; only the target purified

B1: 35S-labelled EcR, in vitro translated (receptor, UniProt P34021 1-878)
chain: MKRRWSNNGGFMRLPEESSSEVTSSSNGLVLPSGVNMSPSSLDSHDYCDQDLWLCGNESGSFGGSNGHGLSQQQQSVITLAMHGCSSTLPAQTTIIPINGNANGNGGSTNGQYVPGATNLGALANGMLNGGFNGMQQQIQNGHGLINSTTPSTPTTPLHLQQNLGGAGGGGIGGMGILHHANGTPNGLIGVVGGGGGVGLGVGGGGVGGLGMQHTPRSDSVNSISSGRDDLSPSSSLNGYSANESCDAKKSKKGPAPRVQEELCLVCGDRASGYHYNALTCEGCKGFFRRSVTKSAVYCCKFGRACEMDMYMRRKCQECRLKKCLAVGMRPECVVPENQCAMKRREKKAQKEKDKMTTSPSSQHGGNGSLASGGGQDFVKKEILDLMTCEPPQHATIPLLPDEILAKCQARNIPSLTYNQLAVIYKLIWYQDGYEQPSEEDLRRIMSQPDENESQTDVSFRHITEITILTVQLIVEFAKGLPAFTKIPQEDQITLLKACSSEVMMLRMARRYDHSSDSIFFANNRSYTRDSYKMAGMADNIEDLLHFCRQMFSMKVDNVEYALLTAIVIFSDRPGLEKAQLVEAIQSYYIDTLRIYILNRHCGDSMSLVFYAKLLSILTELRTLGNQNAEMCFSLKLKNRKLPKFLEEIWDVHAIPPSVQSHLQITQEENERLERAERMRASVGGAITAGIDCDSASTSAAAAAAQHQPQPQPQPQPSSLTQNDSQHQTQPQLQPQLPPQLQGQLQPQLQPQLQTQLQPQIQPQPQLLPVSAPVPASVTAPGSLSAVSTSSEYMGGSAAIGPITPATTSSITAAVTASSTTSAVPMGNGVGVGVGVGGNVSMYANAQTAMALMGVALHSHQEQLIGGVAVKSEHSTTA
modifications: 35S-methionine labelled
With B1 the binding was “binds”.

Results are given in words; binding and its absence hold for the method and conditions named. Binding seen in cells or lysates may run through a third protein. Binding can be weak; no strength is given.
